According to patent US20120115830A1:
Results are given in words; binding and its absence hold for the method and conditions named. Binding seen in cells or lysates may run through a third protein. Some entries that bind do so weakly or less than the wild type.

Chains of the proteins cited; added tags and fusions are not shown.
UniProt Q9BYM8: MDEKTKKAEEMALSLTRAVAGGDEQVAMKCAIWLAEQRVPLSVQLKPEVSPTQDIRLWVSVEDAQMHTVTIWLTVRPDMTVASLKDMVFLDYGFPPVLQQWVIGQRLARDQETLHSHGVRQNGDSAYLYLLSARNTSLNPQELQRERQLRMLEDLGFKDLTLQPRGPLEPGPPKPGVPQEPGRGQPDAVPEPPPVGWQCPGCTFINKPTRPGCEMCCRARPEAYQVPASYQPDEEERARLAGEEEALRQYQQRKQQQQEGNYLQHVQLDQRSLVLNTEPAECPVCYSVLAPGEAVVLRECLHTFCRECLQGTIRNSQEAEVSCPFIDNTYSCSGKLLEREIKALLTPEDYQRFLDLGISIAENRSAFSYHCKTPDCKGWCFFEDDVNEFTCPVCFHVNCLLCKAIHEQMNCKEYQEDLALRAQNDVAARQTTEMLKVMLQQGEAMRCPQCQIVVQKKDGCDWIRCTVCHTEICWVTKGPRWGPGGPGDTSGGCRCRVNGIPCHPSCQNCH

Legend:
[1] = biological target: T1, FKBPL (Homo sapiens (Human)) (UniProt Q9UIM3); assay: co-immunoprecipitation (FIG. 3a)
T1 sequence: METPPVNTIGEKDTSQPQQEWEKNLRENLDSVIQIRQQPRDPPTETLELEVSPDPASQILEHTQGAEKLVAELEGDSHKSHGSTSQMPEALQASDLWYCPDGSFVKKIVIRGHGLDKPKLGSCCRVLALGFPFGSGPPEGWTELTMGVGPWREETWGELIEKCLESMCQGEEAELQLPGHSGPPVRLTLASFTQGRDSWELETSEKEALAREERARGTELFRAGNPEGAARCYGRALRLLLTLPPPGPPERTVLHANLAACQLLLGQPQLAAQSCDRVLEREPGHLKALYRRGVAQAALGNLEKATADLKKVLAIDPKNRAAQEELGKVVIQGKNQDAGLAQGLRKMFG

[2] = biological target: T1, FKBPL (Homo sapiens (Human)); assay: co-immunoprecipitation from FKBPL stable 3.1D2 cells transfected with pcDNA3.1-Myc/XAP3, western blot
[3] = biological target: T1, FKBPL (Homo sapiens (Human)); assay: co-immunoprecipitation (FIG. 3)

binding [1]: binds
binding [2]: binds
binding [3]: binds
Substance: Myc/XAP3 (pcDNA3.1-Myc/XAP3) (from UniProt Q9BYM8 1-510)
